# Data reported in PubChem BioAssay AID1487 (National Center for Advancing Translational Sciences (NCATS), 2009).
# Some of the results follow. The main result of the screen is listed elsewhere. These columns were measured beside it and carry no call. Compounds called inactive in the main read-out are mostly missing here. The note in brackets gives the kind of curve behind each potency; many fits are weak.
# Assay: qHTS Assay for Modulators of Lamin A Splicing
# Details: HeLa LMNA splicing GFP/RFP minigene ratio, 48 h
# Summary of the method: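 S3 HeLa cells stably expressing lamin A-EGFP splicing minigene plus DsRed2, 600 cells/well, 48 h compound exposure at 37C. Laser-scanning cytometry; analysed as GFP (500-530 nm)/RFP (575-640 nm) total intensity ratio; 0.5% DMSO vehicle.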
# [1] = measured here: GFP splicing reporter channel
# [2] = measured here: RFP viability control channel
Structure (SMILES),AC50 [1],AC50 [2]
CCn1nc(C)c2c(-c3ccccc3)cc(=O)n(C(C)C(=O)Nc3cc(C)ccc3C)c21 (stereo not given),"39.8 µM [falling, partial curve, poor fit]",
O=C(NCCc1ccc(Cl)cc1)C1CCN(S(=O)(=O)c2ccc(-n3cnnn3)cc2)CC1,"11.2 µM [rising, partial curve]","11.2 µM [rising, partial curve]"
CCCCOc1ccc(C(=O)Nc2cccc(C)n2)cc1,"7.08 µM [rising, partial curve]","15.8 µM [rising, partial curve]"
O=C(CCN1CCN(C/C=C/c2ccccc2)CC1)Nc1ccccc1F,"0.01 µM [rising, full curve, poor fit]","0.0251 µM [rising, full curve, poor fit]"
FC(F)(F)C(Oc1nc(NC2CCCCC2)nc(N2CCOCC2)n1)C(F)(F)F,"17.8 µM [rising, single point]","20 µM [rising, single point]"
CCS(=O)(=O)NCC(c1ccco1)N1CCN(c2ccc(F)cc2)CC1 (stereo not given),,"15.8 µM [rising, single point]"
CC(=O)C1=C(c2cccc([N+](=O)[O-])c2)N(C(C)=O)n2c(nnc2-c2ccc(C)cc2)S1,,"14.1 µM [rising, partial curve]"
O=C(NCc1ccc2c(c1)OCO2)c1ccc(CS(=O)(=O)c2cccc(C(F)(F)F)c2)o1,,"31.6 µM [rising, single point]"
O=C(Cn1nc(-c2ccccc2)ccc1=O)Nc1cccc(NC(=O)c2ccccn2)c1,"17.8 µM [falling, partial curve]","17.8 µM [falling, partial curve]"
Cc1ccc([N+](=O)[O-])cc1N(CC(=O)Nc1ccc(S(=O)(=O)Nc2cccc(C(F)(F)F)c2)cc1)S(C)(=O)=O,"35.5 µM [falling, partial curve, poor fit]",
Cc1nc2ccccc2n1/N=C/c1ccc([N+](=O)[O-])s1,"20 µM [rising, single point]",
CCCOc1ccc(-c2cn3ccccc3n2)cc1[N+](=O)[O-],"0.0355 µM [falling, full curve, poor fit]",
CC(C)n1c(O)c(N=NC(=O)Cc2csc(N3CCOCC3)n2)c2ccccc21,,"2.82 µM [rising, full curve]"
CCc1ccc(C(C)NC(=O)c2ccc(F)cc2)cc1 (stereo not given),,"0.891 µM [rising, single point]"
Cc1cc(C(=O)CSc2nc3ccccc3c(=O)n2C)c(C)n1Cc1ccc2c(c1)OCO2,,"1.26 µM [rising, full curve]"
COc1ncccc1C(=O)N1CCCC(C(=O)c2cccc(OC(C)C)c2)C1 (stereo not given),"0.794 µM [falling, full curve, poor fit]","1.26 µM [falling, full curve, poor fit]"
COc1cccc(CN(c2ccc3c(c2)CCC3)S(=O)(=O)c2ccc(-n3cnnn3)c(OC)c2)c1,,"17.8 µM [rising, single point]"
NS(=O)(=O)c1ccc(N2N=C(c3ccc(Br)cc3)CC2c2ccc(F)cc2)cc1 (stereo not given),"28.2 µM [falling, single point]","35.5 µM [falling, single point]"
CC(c1ccccc1F)n1cc(C(=O)NCCCc2nc3ccccc3[nH]2)nn1 (stereo not given),,"0.00316 µM [falling, full curve, poor fit]"
O=C(O)c1ccc2nc(-c3ccccc3)sc2c1,,"0.158 µM [rising, full curve, poor fit]"
CC1CCN(C(=O)CCc2ccc(Oc3cc([N+](=O)[O-])cc([N+](=O)[O-])c3)cc2)CC1,"14.1 µM [rising, single point]","25.1 µM [rising, single point]"
Cc1sc2ncnc(N3CCCCC3)c2c1C,,"35.5 µM [rising, single point]"
O=C(CSc1cccc2cccnc12)N/N=C/c1ccc(F)cc1,"0.355 µM [rising, full curve, poor fit]",
COc1ccc(-c2nnc(NC(=O)c3ccc(S(=O)(=O)N4CCCc5ccccc54)cc3)o2)cc1,,"15.8 µM [rising, partial curve]"
CC(C)S(=O)(=O)c1ccc(C(=O)Nc2ccc(F)cc2F)cn1,,"25.1 µM [falling, single point]"
CCNC(=O)NC(=O)C(C)Oc1ccc(Br)cc1Br (stereo not given),"17.8 µM [falling, single point]","15.8 µM [falling, single point]"
Cc1noc(C)c1COC(=O)c1cccnc1SCC(=O)Nc1ccc2c(c1)OCO2,,"15.8 µM [rising, partial curve]"
CC(C)Oc1ccc(CNC(=O)c2sc3ncccc3c2-n2cccc2)cc1,,"17.8 µM [falling, partial curve, poor fit]"

# 14 neighbouring compounds out of the list so far:
Structure (SMILES),AC50 [1],AC50 [2]
Cc1nc2ccccc2n1/N=C/c1ccc([N+](=O)[O-])s1,"20 µM [rising, single point]",
CCCOc1ccc(-c2cn3ccccc3n2)cc1[N+](=O)[O-],"0.0355 µM [falling, full curve, poor fit]",
CC(C)n1c(O)c(N=NC(=O)Cc2csc(N3CCOCC3)n2)c2ccccc21,,"2.82 µM [rising, full curve]"
CCc1ccc(C(C)NC(=O)c2ccc(F)cc2)cc1 (stereo not given),,"0.891 µM [rising, single point]"
Cc1cc(C(=O)CSc2nc3ccccc3c(=O)n2C)c(C)n1Cc1ccc2c(c1)OCO2,,"1.26 µM [rising, full curve]"
COc1ncccc1C(=O)N1CCCC(C(=O)c2cccc(OC(C)C)c2)C1 (stereo not given),"0.794 µM [falling, full curve, poor fit]","1.26 µM [falling, full curve, poor fit]"
COc1cccc(CN(c2ccc3c(c2)CCC3)S(=O)(=O)c2ccc(-n3cnnn3)c(OC)c2)c1,,"17.8 µM [rising, single point]"
NS(=O)(=O)c1ccc(N2N=C(c3ccc(Br)cc3)CC2c2ccc(F)cc2)cc1 (stereo not given),"28.2 µM [falling, single point]","35.5 µM [falling, single point]"
CC(c1ccccc1F)n1cc(C(=O)NCCCc2nc3ccccc3[nH]2)nn1 (stereo not given),,"0.00316 µM [falling, full curve, poor fit]"
O=C(O)c1ccc2nc(-c3ccccc3)sc2c1,,"0.158 µM [rising, full curve, poor fit]"
CC1CCN(C(=O)CCc2ccc(Oc3cc([N+](=O)[O-])cc([N+](=O)[O-])c3)cc2)CC1,"14.1 µM [rising, single point]","25.1 µM [rising, single point]"
Cc1sc2ncnc(N3CCCCC3)c2c1C,,"35.5 µM [rising, single point]"
O=C(CSc1cccc2cccnc12)N/N=C/c1ccc(F)cc1,"0.355 µM [rising, full curve, poor fit]",
COc1ccc(-c2nnc(NC(=O)c3ccc(S(=O)(=O)N4CCCc5ccccc54)cc3)o2)cc1,,"15.8 µM [rising, partial curve]"

# (further entries)

Structure (SMILES),AC50 [1],AC50 [2]
CC(C)C(OC(=O)c1cc2sccc2n1C)C(=O)NCC1CCCO1 (stereo not given),,"25.1 µM [rising, single point]"
CCc1nnc(NC(=O)CSc2nc3cccnc3n2C2CCCCC2)s1,,"35.5 µM [rising, single point]"
COc1ccc(/C=C/C(=O)c2ccc[nH]2)cc1OC,,"5.62 µM [rising, partial curve]"
Cc1nc(SCC(=O)Nc2ccc(C)c(Cl)c2)cc(-c2ccccc2)n1,,"0.158 µM [falling, full curve, poor fit]"
Cc1ccc(CCNC(=O)C2CCCN2S(=O)(=O)c2ccc3c(c2)CCC(=O)N3)cc1 (stereo not given),,"15.8 µM [rising, partial curve, poor fit]"
CC(/C=C/c1ccccc1)=N\Nc1nc(C)cc(C)n1,,"8.91 µM [rising, partial curve]"
CCOC(=O)c1cc2c(ccn2C)n1CC(=O)N(Cc1ccccc1)c1ccc(F)cc1,"10 µM [rising, partial curve, poor fit]","12.6 µM [rising, partial curve]"
COc1ccc(Cl)cc1Nc1ncnc2sc(C)c(S(=O)(=O)N3CCC(C)CC3)c12,,"12.6 µM [rising, partial curve, poor fit]"
COc1ccc(NC(=O)c2c(Nc3ccccc3)sc(C(=O)c3ccc(F)cc3)c2N)cc1,,"3.16 µM [rising, full curve, poor fit]"
CC(C)c1ccc(Nc2nnc(SCC(=O)Nc3ncc(S(=O)(=O)c4ccc([N+](=O)[O-])cc4)s3)s2)cc1,,"0.0158 µM [falling, full curve, poor fit]"
Cc1ccc(O)c(-c2cc3ccccc3[nH]2)c1,,"10 µM [rising, partial curve]"
Cc1ccc(Cl)cc1NC(=O)CCCN1C(=O)c2cccnc2C1=O,"0.0501 µM [rising, full curve, poor fit]",
Cc1c(Br)c(=O)oc2c(Br)c(O)c(O)cc12,,"35.5 µM [rising, single point]"
CC(NC(=O)c1cc(-c2ccccc2)nc2ccccc12)C1CCCO1 (stereo not given),,"0.00447 µM [falling, full curve, poor fit]"
O=C(NCc1ccncc1)c1cccc(Cn2cc(Br)cn2)c1,"11.2 µM [rising, single point]","12.6 µM [rising, partial curve]"
Brc1ccc2c(c1)C(c1ccc(N3CCOCC3)cc1)=NNC(c1cccs1)=N2,,"11.2 µM [rising, partial curve]"
Fc1ccc(Nc2ccnc(-c3ccc4c(c3)OCO4)n2)cc1,"2 µM [falling, partial curve, poor fit]",
COc1ccc(CN(C(=O)CSc2nnc(-c3ccccc3F)o2)c2ccc(F)cc2)cc1,"14.1 µM [rising, single point]","20 µM [rising, single point]"
CCSc1nnc(NC(=O)[C@@H](NC(=O)c2ccc(C(C)(C)C)cc2)C(C)C)s1,"7.94 µM [rising, partial curve, poor fit]","15.8 µM [rising, partial curve]"
O=C(NCc1ccco1)c1cccnc1Cl,"5.62 µM [rising, single point]","5.62 µM [rising, single point]"
CCOC(=O)c1ccc(NC(=O)c2oc3c(c2C)-c2nn(Cc4ccccc4Cl)cc2CC3)cc1,"14.1 µM [falling, single point]","25.1 µM [falling, single point]"
CC1(C)CCCC(C)(C)N1CC(O)COCCOc1ccc(Br)cc1 (stereo not given),,"7.94 µM [rising, partial curve]"
CCCCOc1ccccc1C1CC(=O)Nc2cc(C)c(C)cc21 (stereo not given),"35.5 µM [falling, single point]","35.5 µM [falling, single point]"
NC1(C(=O)O)CC1,"0.00447 µM [falling, full curve, poor fit]","0.00501 µM [falling, full curve, poor fit]"
COc1ccc(S(=O)(=O)Nc2cc3c4c(oc3c3ccccc23)CCCC4=O)cc1,"11.2 µM [falling, partial curve]","35.5 µM [falling, single point]"
CCN1CCN(c2oc(COc3ccc(-c4ccccc4)cc3)nc2C#N)CC1,"14.1 µM [rising, single point]","22.4 µM [rising, partial curve]"
CN(c1cccc(NC(=O)Nc2cccc(Cl)c2)c1)S(C)(=O)=O,"17.8 µM [rising, partial curve]","14.1 µM [rising, partial curve]"
